Experimental data from publication PMC11797056, “The ATPase activity of yeast chromosome axis protein Hop1 affects the frequency of meiotic crossovers” (Nucleic Acids Research, 2024).
Results are given in words; binding and its absence hold for the method and conditions named. Binding can be weak; no strength is given.

Target: untagged Hop1-CTD (S. cerevisiae)
Assay: far-Western, overlay or dot blot; increasing concentrations of untagged Hop1-CTD (or MsRecA) spotted on nitrocellulose; probed with purified Hop1 HORMA in blocking buffer (25 mM HEPES pH 7.5, 100 mM NaCl, 1 mM EDTA, 5% skimmed milk) for 12 h at 4°C; detected with anti-His antibodies; both purified

binding: binds
B1: Hop1 HORMA domain (domain or fragment, UniProt P20050 20-250)
chain: EQSQKLLQTMLTMSFGCLAFLRGLFPDDIFVDQRFVPEKVEKNYNKQNTSQNNSIKIKTLIRGKSAQADLLLDWLEKGVFKSIRLKCLKALSLGIFLEDPTDLLENYIFSFDYDEENNVNINVNLSGNKKGSKNADPENETISLLDSRRMVQQLMRRFIIITQSLEPLPQKKFLTMRLMFNDNVDEDYQPELFKDATFDKRATLKVPTNLDNDAIDVGTLNTKHHKVALSV
modifications: Red-tris-NTA label (in the MST only)
